This assay addresses Flag-RAB27A (human) (UniProt P51159). Nature of the assay: co-IP; HEK293T co-transfected with Flag-RAB27A and Myc-SHD (WT, D25H or R35W), harvested after 48 h; lysis in 150 mM NaCl, 50 mM Tris pH 7.4, 1 mM EDTA, 1% Triton-100; anti-FLAG M2 agarose at 4°C overnight; blots with anti-Flag and anti-Myc.

By UniProt entry, the sequences of proteins in these tests, tags left out.
UniProt P51159: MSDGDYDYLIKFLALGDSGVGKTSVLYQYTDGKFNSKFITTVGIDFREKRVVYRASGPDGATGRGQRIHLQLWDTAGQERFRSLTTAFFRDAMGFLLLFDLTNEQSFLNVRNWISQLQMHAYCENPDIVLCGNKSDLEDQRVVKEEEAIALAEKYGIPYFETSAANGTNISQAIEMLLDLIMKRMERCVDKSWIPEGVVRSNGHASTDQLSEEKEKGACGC

Results are given in words; binding and its absence hold for the method and conditions named. In cells and extracts the contact can be indirect. Some binding calls cover weakened binding; strength is not graded here. Sequences can lack the tags named with a protein.

B1: Myc-tagged SHD (WT)-MLPH (domain or fragment, UniProt Q9BV36-1 1-146)
chain: MGKKLDLSKLTDEEAQHVLEVVQRDFDLRRKEEERLEALKGKIKKESSKRELLSDTAHLNETHCARCLQPYQLLVNSKRQCLECGLFTCKSCGRVHPEEQGWICDPCHLARVVKIGSLEWYYEHVKARFKRFGSAKVIRSLHGRLQ
In the case of B1, the binding entry is reported as “binds”.

The values above are taken from paper PMC9120966.
